# From the supplement of paper PMC3334620
# The full ranking holds about 33,000 sequences; the median of “E-score (-0.5 to 0.5)” is about -8e-05, and the highest 2% start at about 0.23. Some of the results follow.
# Molecular target: T1, Nrg2 (UniProt P38082)
# T1 sequence: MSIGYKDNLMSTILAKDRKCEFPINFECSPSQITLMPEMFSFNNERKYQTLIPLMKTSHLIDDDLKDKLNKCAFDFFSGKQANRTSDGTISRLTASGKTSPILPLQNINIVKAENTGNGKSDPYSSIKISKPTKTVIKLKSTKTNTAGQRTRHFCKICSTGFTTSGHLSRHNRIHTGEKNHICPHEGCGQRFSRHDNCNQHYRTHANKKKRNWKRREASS
# Assay: PBM E-score (8-mer binding enrichment) (E-score (-0.5 to 0.5)); higher = stronger / more preferred TF binding
# Conditions: protein concentration: 100 nM; construct: GST-full length
# How it was run: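 Universal all-10-mer Agilent arrays, double-stranded by primer extension on fresh or once-stripped slides, were probed with about 100-200 nM GST-tagged yeast transcription factors made by PURExpress. Fluorescent anti-GST detected bound protein, and masliner normalised the scans. E-scores from the Universal PBM Analysis Suite were given to each ungapped eight-base word pooled with its reverse complement.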
row,Sequence,PBM E-score
1,AAAAGTGC,-0.00319
2,CATCACTA,-0.0874
3,CTAAACAG,-0.131
4,CCCCGACG,-0.0671
5,AACATGTG,0.176
6,CGGTGACA,-0.00256
7,CATAGCAC,0.0674
8,AACCCGCG,0.267
9,CTAAAGAG,-0.0979
10,CTAGACGC,-0.0456
11,CGTTACCA,0.101
12,CTTATTTC,0.222
13,ATTACTTA,0.104
14,CCGTACCA,0.116
15,GGCAGGAC,-0.0676
16,GAACGACA,0.0551
17,GCCTCCCA,-0.254
18,ACGTTGCT,0.171
19,CACTGTAC,-0.0202
20,CATAATGC,-0.00966
21,AGTTTTTG,0.171
22,GATTTACA,0.155
23,GCACCGAC,-0.0591
24,GAAGCTGA,0.0775
25,CACTACGA,-0.133

# Fetched one by one from above:
row,Sequence,PBM E-score
3,CTAAACAG,-0.131
25,CACTACGA,-0.133
4,CCCCGACG,-0.0671

# (listing goes on)

row,Sequence,PBM E-score
1,GGATTAGA,-0.0145
2,AGATAACG,0.209
3,CAATGGAA,0.131
4,ATAAATAA,0.237
5,GTGAGCCA,-6e-05
6,ATAAGTAA,0.0712
7,CCTCTTCA,-0.123
8,CTTTACTA,0.26
9,CCGTGAAA,0.0709
10,CGGGATCC,0.12
11,ACGGTTTG,-0.0837
12,GCCCCTGA,0.292
13,AACTTGCA,0.0765
14,AGCGTGGG,-0.132
15,AGATTATG,0.114
16,AATTAGCC,-0.057
17,CACATGCG,0.113
18,CCATCCCC,-0.0249
19,ACATCATA,0.0906
20,AGAAAAAC,-0.186
21,TCGTCACA,0.154
22,CTCTTAGA,-0.0806
23,ATTACGAG,0.145
24,CCGGTCCC,-0.0863
25,CATTCTTC,0.147

row,Sequence,PBM E-score
1,TACCAAAA,-0.0424
2,GTAACGAC,-0.112
3,ATGGGCTG,-0.0381
4,AGATACGA,0.153
5,CACTAGCA,-0.0399
6,CAGGGACG,0.306
7,CGAATGGC,0.13
8,TCGGCCAA,0.0199
9,TCGTGCCA,-0.0394
10,TAGCTCCA,-0.118
11,CGAACCGA,0.136
12,AGTGGCGG,-0.0307
13,CCCACTGC,0.14
14,GGCCACGA,-0.0839
15,CAGCCCAA,-0.0423
16,CCACTTTC,-0.102
17,AATCACCA,0.112
18,AACTAAAT,0.0907
19,ACAGGCCC,-0.223
20,GTGGAGGA,-0.106
21,CTGACTGC,-0.0266
22,GGAAATTA,0.115
23,AGCTGGTA,-0.0877
24,CTCAGTCA,-0.0332
25,GACACGCC,0.004

row,Sequence,PBM E-score
1,ACATCGAT,0.0579
2,ATTAGAGC,0.18
3,TACTCAGA,0.0952
4,ACTAAGGA,0.0414
5,CGGATAGC,-0.0568
6,TCGCCCGA,-0.0729
7,GATTTGAA,0.0894
8,CCGTCAAA,-0.129
9,GAGAGCCC,-0.363
10,ACAGTCTG,-0.0563
11,GAGCCAGA,-0.143
12,AACTCGCT,-0.0197
13,CAAATTTC,0.0486
14,TACGATAA,0.0265
15,AGCTCGCA,0.0522
16,GACCACTC,-0.0798
17,AGCATCAT,-0.0702
18,ACATACCG,-0.19
19,CTCGCGAA,-0.00662
20,GCCTGATA,-0.076
21,AAAGGAAG,-0.0979
22,GTACCTCA,0.0876
23,CTAGGCAC,-0.162
24,GGTTAGTA,0.0325
25,AAAAGTAC,0.00544

# 7 consecutive records from above:
row,Sequence,PBM E-score
14,TACGATAA,0.0265
15,AGCTCGCA,0.0522
16,GACCACTC,-0.0798
17,AGCATCAT,-0.0702
18,ACATACCG,-0.19
19,CTCGCGAA,-0.00662
20,GCCTGATA,-0.076

# Later entries.

row,Sequence,PBM E-score
1,ACCCCTTG,0.00362
2,ACTAGTTC,0.0532
3,CCAGATTA,0.0238
4,ATGTTACA,0.099
5,ATATACAG,0.168
6,CTAGCAGC,0.0191
7,CACTGTTC,-0.0687
8,TAAGTTCA,-0.0818
9,GCGAACGC,-0.243
10,CAGCTTGC,-0.0553
11,GCAGTCTA,-0.101
12,AGTTCGGG,0.171
13,GCATCGTA,-0.105
14,CGCAGTAA,0.0692
15,GAAATTAC,0.161
16,GCAGCTAA,0.0815
17,ATCTGCAG,0.108
18,GAGAGCGC,0.059
19,CGCGACCG,-0.0433
20,ACGCCTAT,-0.0501
21,CAAGCCGG,0.178
22,TCGACTCA,0.196
23,AAGCTTTC,0.0799
24,ATTTCCTA,0.0878
25,TCAGCAAA,0.0537

# 3 entries from above, tab-delimited.
row	Sequence	PBM E-score
21	CTGACTGC	-0.0266
22	GGAAATTA	0.115
23	AGCTGGTA	-0.0877

# Additional records

row,Sequence,PBM E-score
1,ATCCGTCA,0.134
2,AAGTTTCT,0.164
3,ACGGGCGG,-0.211
4,AGCATCGG,-0.136
5,CGTTAGCA,0.0603
6,GGTTTCCA,-0.138
7,GACGAAAA,0.171
8,CTTAGCCC,-0.0969
9,AGGATCTG,-0.221
10,AGCCGGCT,-0.0683
11,ACTGCTAC,0.0334
12,AGTTAGTA,0.069
13,GTTGTTAA,0.241
14,GCTATAAA,-0.0103
15,CTTAGCAC,-0.0734
16,TATGGAGA,0.0835
17,CCTGAATC,0.0585
18,AGGTACCT,-0.158
19,GAATGATC,-0.0614
20,CGTTCGTA,0.138
21,ACGTACCG,-0.106
22,CGTAAGAG,-0.0741
23,ACCATACA,-0.0448
24,GCTAAGAA,-0.103
25,AACCTACG,-0.0173

row,Sequence,PBM E-score
1,CAATATGG,0.055
2,CTCGACAA,0.00365
3,GTTTTGGA,-0.14
4,ACCCGTGG,-0.111
5,ATCGATAA,-0.0134
6,ATAGATGA,-0.0204
7,ATCCTTAC,-0.0956
8,CAGAGCCA,-0.207
9,AGGCTTTA,-0.254
10,CGGGCAAA,-0.00802
11,ACACGGAA,0.0623
12,CAGAACAC,-0.00155
13,GCGCTAGA,0.0437
14,TAACTCTA,-0.0441
15,TCGCTAGA,-0.0372
16,AAGGTTCA,8e-05
17,TGGCTTAA,0.0347
18,AGCACAGC,0.0974
19,AAGAGTAT,-0.132
20,AGGCCGAC,-0.0721
21,TTGGCCAA,0.0568
22,CAAATCCC,0.00106
